Experimental data published in PubChem BioAssay AID493014 (National Center for Advancing Translational Sciences (NCATS), 2011).
Some of the results follow. Shown are side measurements of this screen, not its main read-out; they come without a call. The list favours compounds with an active or inconclusive main result. Potencies come from curve fits of mixed quality, noted in brackets.

Test: qHTS Assay to Find Inhibitors of Chronic Active B-Cell Receptor Signaling
Details: ABC-DLBCL IkBa-CBG/CBR reporter, luminescence ratio (green luciferase fused to IkBa over red control in TMD8 lymphoma cells), 4 h
Procedure, shortened: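 Cell line TMD8 (human ABC DLBCL), stably expressing tet-inducible CBG68-IkBa fusion and CBR; IMDM/0.5% FBS; cpd up to 46 uM; dox induction, 4 h, 37C/5% CO2; dual luminescence; green/red ratio; MG132 control.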

[1] = measured here: CBR red luminescence, cell number
[2] = measured here: IkBa-CBG green luminescence

| Compound | AC50 [1] | AC50 [2] |
| --- | --- | --- |
| CC(NC(=O)c1sc2ccccc2c1Cl)C1CCCO1 (stereo not drawn) | 16.4 µM [falling, single point] | – |
| Fc1ccc2nc(Nc3nc4cc5c(cc4s3)OCO5)sc2c1 | 0.00461 µM [rising, full curve, poor fit] | – |
| COc1cc(NC(=O)Nc2ccc(C)cc2)cc([N+](=O)[O-])c1 | 0.92 µM [rising, full curve, poor fit] | – |
| COc1ccc(Cc2nnc(SCC(=O)Nc3ccc(C)cc3)n(N)c2=O)cc1 | 13 µM [falling, partial curve, poor fit] | – |
| Cc1ccc2nc(NC(=O)c3ccc(Cl)s3)sc2c1 | 1.64 µM [falling, full curve, poor fit] | – |
| CS(=O)(=O)c1ccc(Cl)c(NC(=O)COC(=O)CNC(=O)c2ccc(Br)o2)c1 | 25.9 µM [rising, single point] | – |
| CC(OC(=O)c1ccc2noc(-c3ccccc3)c2c1)C(N)=O (stereo not drawn) | 3.98 µM [falling, partial curve] | – |
| O=c1oc2ccccc2c(Nc2ccccc2)c1CN1CCCCC1 | 11.2 µM [falling, partial curve, poor fit] | – |
| CCC1=NN(C(=O)c2cccc([N+](=O)[O-])c2)C(O)(c2ccc(C)cc2)C1 (stereo not drawn) | 35.5 µM [falling, single point] | – |
| O=C(Cc1ccc(F)cc1)NCc1ccc2c(c1)CCN2C(=O)c1ccc(F)cc1 | 15.8 µM [rising, partial curve] | – |
| Cc1cccc(NC(=O)NCC(c2ccco2)N2CCCCC2)c1 (stereo not drawn) | 7.08 µM [rising, full curve, poor fit] | – |
| Cc1cc(C)n(/N=C/c2ccccc2)c(=O)c1C#N | 18.4 µM [falling, single point] | – |
| C=CCNC(=S)N1CCN(CCN=Cc2c(C)[nH]n(-c3ccc([N+](=O)[O-])cc3)c2=O)CC1 | 11.2 µM [falling, partial curve] | – |
| O=C(COC(=O)CNC(=O)c1ccc(Cl)cc1Cl)NC(=O)NCc1ccccc1 | 1.3 µM [falling, partial curve, poor fit] | – |
| Cc1nn(-c2ccccc2)c(C)c1C(=O)Oc1ccccc1 | 3.16 µM [rising, single point] | – |
| Cc1cccc(NC(=O)Nc2nnc(N3CCCCC3C)s2)c1C (stereo not drawn) | 29.1 µM [rising, single point] | – |
| COc1ccccc1NC(=O)Nc1ccc(Cc2ccncc2)cc1 | 15.8 µM [falling, single point] | – |
| CCCNS(=O)(=O)c1ccc(CCC(=O)N2CCN(c3ccc(F)cc3)CC2)cc1 | 3.66 µM [falling, full curve] | – |
| NC(=S)N/N=C/c1ncc(C(F)(F)F)cc1Cl | 12.6 µM [rising, partial curve] | 6.31 µM [falling, partial curve] |
| C=CCNc1nc(N2CCCC2)nc2ccccc12 | 2.31 µM [rising, partial curve, poor fit] | – |

| Compound | AC50 [1] | AC50 [2] |
| --- | --- | --- |
| COc1ccccc1NC(=O)COC(=O)CCS(=O)(=O)c1ccc(C)cc1 | 15.8 µM [falling, single point] | – |
| COc1ccc(-c2cc(C(=O)NNC(=O)c3csc(N4CCOCC4)n3)c3ccccc3n2)cc1 | 5.17 µM [rising, single point] | – |
| COc1ccc(CCNC(=O)C(=O)NCC(c2ccco2)S(=O)(=O)c2cccs2)cc1OC (stereo not drawn) | 0.2 µM [rising, full curve, poor fit] | – |
| COc1ccc(CCN2C(=O)CC(N3CCN(S(=O)(=O)c4ccccc4)CC3)C2=O)cc1OC (stereo not drawn) | 1.12 µM [rising, full curve, poor fit] | – |
| COC1CCCN(Cc2cn(C)nc2-c2ccc(Oc3ccccc3)cc2)C1 (stereo not drawn) | 3.16 µM [rising, partial curve, poor fit] | – |
| C/C=C(\CS(=O)(=O)c1ccccc1)S(=O)(=O)c1ccccc1 | 0.103 µM [falling, full curve, poor fit] | – |
| CCc1ccc(/C=N/NC(=O)c2ccccn2)cc1 | 3.98 µM [falling, partial curve] | – |
| Cc1ccccc1Nc1nnc(SCC(=O)c2cc3ccccc3o2)s1 | 5.8 µM [rising, partial curve, poor fit] | – |
| COc1ccc(CCNC(=O)c2ccc3c(c2)N(Cc2ccc(F)cc2)C(=O)CS3)cc1OC | 12.6 µM [falling, single point] | 22.4 µM [rising, partial curve, poor fit] |
| O=c1[nH]c2cc3c(cc2cc1CN(Cc1cccnc1)C(=S)NCc1ccco1)OCO3 | 10 µM [falling, partial curve, poor fit] | – |
| C=CCN(CC=C)C(=O)CN1C(=O)NC(Cc2c[nH]c3ccccc23)C1=O (stereo not drawn) | 15.8 µM [rising, single point] | – |
| CC(O)c1nc2ccccc2n1CCCCOc1ccccc1 (stereo not drawn) | 22.4 µM [rising, partial curve, poor fit] | – |
| Cc1ccc(C(=O)Nc2ccc3c(c2)OCCO3)cc1 | 11.2 µM [falling, partial curve] | – |
| Cc1sc2ncnc(Nc3ccc(N4CCOCC4)cc3)c2c1-c1ccccc1 | 14.6 µM [rising, partial curve, poor fit] | – |
| COc1ccccc1CC(=O)NNC(=O)c1cccs1 | 10 µM [falling, partial curve, poor fit] | – |
| COc1cc2c(cc1NC(=O)c1cccc(Br)c1)CCCC2 | 0.447 µM [rising, full curve, poor fit] | – |
| S=c1[nH]nc(-c2ccccc2)n1/N=C/c1cccc(Br)c1 | 12.6 µM [rising, single point] | – |
| COc1cccc2cc(-c3ccnc(N)n3)oc12 | 1.12 µM [falling, full curve, poor fit] | – |
| CC(C)(C)C(=O)Nc1nc2cc3c(cc2s1)OCO3 | 12.6 µM [falling, partial curve] | – |
| COc1cccc(CSc2nc3ccccc3cc2C=O)c1 | 2.82 µM [rising, partial curve] | 3.55 µM [falling, partial curve] |

Sorted by length of the SMILES (ascending): part of the list above

| Compound | AC50 [1] | AC50 [2] |
| --- | --- | --- |
| COc1cccc2cc(-c3ccnc(N)n3)oc12 | 1.12 µM [falling, full curve, poor fit] | – |
| Cc1ccc(C(=O)Nc2ccc3c(c2)OCCO3)cc1 | 11.2 µM [falling, partial curve] | – |
| C=CCN(CC=C)C(=O)CN1C(=O)NC(Cc2c[nH]c3ccccc23)C1=O (stereo not drawn) | 15.8 µM [rising, single point] | – |
